Laboratory results published in PubChem BioAssay AID493014 (National Center for Advancing Translational Sciences (NCATS), 2011).
Some of the results follow. Further columns of the screen follow, without active or inactive calls. The list favours compounds with an active or inconclusive main result. Potencies come from curve fits of mixed quality, noted in brackets.

Experiment: qHTS Assay to Find Inhibitors of Chronic Active B-Cell Receptor Signaling
Details: ABC-DLBCL IkBa-CBG/CBR reporter, luminescence ratio (green luciferase fused to IkBa over red control in TMD8 lymphoma cells), 4 h
Procedure, shortened: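 Concentration-response series (up to 46 uM) were applied to TMD8 dual-reporter cells for 4 h at 37C with doxycycline. Green/red ratio, after filter-overlap correction, defined %Activity; red signal alone was normalised to basal cells and zero luminescence.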

[1] = measured here: CBR red luminescence, cell number
[2] = measured here: IkBa-CBG green luminescence

SMILES | AC50 [1] | AC50 [2]
Nc1ncnc(N)c1N=Nc1ccccc1 | 14.1 µM [falling, partial curve, poor fit] | –
COc1ccccc1NC(=O)c1nc[nH]c1C(=O)Nc1ccccc1OC | 10 µM [falling, partial curve, poor fit] | –
O=C(NNc1nc2c(F)cccc2s1)c1ccc(F)cc1 | 11.2 µM [falling, partial curve, poor fit] | –
CCN1CCN(C(=O)c2cc3nc(-c4ccccc4)cc(C(F)(F)F)n3n2)CC1 | 20.6 µM [rising, single point] | –
CC(C)CNC(=O)CO/N=C/c1ccccc1Cl | 35.5 µM [rising, single point] | –
CCC(=O)N1CCC2(CC1)Oc1ccc(F)cc1C(=O)C21CC(c2cccnc2)=NO1 (stereo not given) | 0.708 µM [rising, full curve, poor fit] | –
COC(=O)c1cc(NC(=O)c2ccccc2F)cc(C(=O)OC)c1 | 2.51 µM [falling, partial curve, poor fit] | –
COc1ccc(C(C)=O)cc1CSc1nnc(-c2ccc(Cl)cc2)n1-c1ccccc1 | 11.2 µM [falling, single point] | –
Nc1ccc(C(=O)N/N=C\c2ccc(OC(=O)c3ccccc3Cl)cc2)cc1 | 20 µM [falling, single point] | –
CCN(CCS(=O)(=O)c1ccc(Cl)cc1)C(=O)Nc1ccccc1 | 5.01 µM [falling, partial curve, poor fit] | –
O=C(Nc1ccc(Br)cc1)c1cccc(N2C(=O)CCC2=O)c1 | 35.5 µM [falling, single point] | –
CCOc1ccc2nc(Cl)c(C3CC(c4ccccc4)=NN3C(=O)c3cccs3)cc2c1 (stereo not given) | 0.366 µM [falling, full curve, poor fit] | –
COC(=O)c1ccccc1NC(=O)c1cnn2cccnc12 | 35.5 µM [falling, single point] | –
CC(=O)c1ccc(S(=O)(=O)N2CCc3ccccc3C2)cc1 | 10 µM [rising, partial curve, poor fit] | –
CN1C(=O)/C(=C2\SC(=S)N(CCCCCC(=O)O)C2=O)c2ccccc21 | 4.47 µM [falling, full curve] | –
CC1=NN(C(N)=S)C(=O)C1N=Nc1ccc(Br)cc1 (stereo not given) | 17.8 µM [rising, single point] | –
CC(C)(C)CN1CCN(Cc2cccnc2)CC1CCO (stereo not given) | 2.24 µM [rising, full curve] | –
O=C(CC1NCCNC1=O)Nc1ccc([N+](=O)[O-])cc1 (stereo not given) | 5.62 µM [rising, full curve, poor fit] | –
CCCCOc1ccc(C(=O)N2CCN(CC(=O)Nc3ccc(C)cc3)CC2)cc1OC | 10 µM [falling, partial curve, poor fit] | –
CN(CC(=O)Nc1ccccc1Cl)C(=O)COC(=O)/C=C/c1ccc(C(F)(F)F)cc1 | 35.5 µM [falling, single point] | –
COC(=O)C1=NN(C(=O)c2cccc(Cl)c2)C(O)(C(C)(C)C)C1 (stereo not given) | 6.51 µM [falling, partial curve] | –

Molecules listed so far with bromine, in the order listed:
SMILES | AC50 [1] | AC50 [2]
O=C(Nc1ccc(Br)cc1)c1cccc(N2C(=O)CCC2=O)c1 | 35.5 µM [falling, single point] | –
CC1=NN(C(N)=S)C(=O)C1N=Nc1ccc(Br)cc1 (stereo not given) | 17.8 µM [rising, single point] | –

The list continues:

SMILES | AC50 [1] | AC50 [2]
COCCNC(=O)c1cc2oc3ccccc3c2n1C | 6.51 µM [rising, single point] | –
COC(=O)c1ccc(COc2ccc(C3C4=C(CCCC4=O)Nc4onc(C)c43)cc2)cc1 (stereo not given) | 0.164 µM [falling, full curve, poor fit] | –
Cc1cccc(NC(=O)CSc2nsc(SCC(=O)Nc3cccc(C)c3)c2C#N)c1 | 1.16 µM [falling, full curve, poor fit] | –
Cc1cnc(C(=O)Nc2ccccc2F)cn1 | 0.0517 µM [falling, full curve, poor fit] | –
CCc1nn(CCCC(=O)N2CCC(C)CC2)c(=O)c2cc3occc3n12 | 7.08 µM [rising, partial curve, poor fit] | –
CCC(=O)N(C)/C=C1\Sc2ccccc2C1=O | 12.6 µM [falling, partial curve] | –
COc1cc(C2N(Cc3ccccc3)CCN2Cc2ccccc2)ccc1OC(C)=O | 14.1 µM [falling, partial curve, poor fit] | –
O=[N+]([O-])c1cc(C(F)(F)F)ccc1Cl | 20.6 µM [rising, single point] | –
O=C(c1ccc(C(F)(F)F)cc1)C1CCCN(C(=O)Cn2cnnn2)C1 (stereo not given) | 6.31 µM [falling, single point] | –
COc1ccc(/C=N/NC(=O)c2nc(-c3ccccc3)cc(-c3ccccc3)n2)cc1O | 3.66 µM [rising, partial curve] | –
O=c1c2c3nc4ccccc4nc3n(/N=C/c3ccncc3)c2ncn1-c1ccccc1 | 5.62 µM [rising, single point] | –
COc1ccc2c(c1)c(C(=O)CN1CCc3ccccc3C1)c(C)n2C | 3.98 µM [rising, single point] | –
CC1CN(S(=O)(=O)c2cccc(C(=O)OC(C)C(=O)NC3CCCCC3C)c2)CC(C)O1 (stereo not given) | 22.4 µM [rising, single point] | –
C=CCn1c(SCC(=O)Nc2ccccc2OC)nc2c([nH]c3ccccc32)c1=O | 3.16 µM [falling, partial curve, poor fit] | –
O=C(O)c1ccc2c(c1)C(=O)N(c1ccc(Nc3ccccc3)cc1)C2=O | 35.5 µM [falling, single point] | –
COC(=O)c1oc2ccccc2c1NC(=O)c1ccccc1O | 35.5 µM [rising, single point] | –
O=C(Cc1c(F)cccc1Cl)Nc1ncc([N+](=O)[O-])s1 | 35.5 µM [falling, single point] | –
CCc1ccc(N(C)S(=O)(=O)c2ccc3[nH]cc(C(=O)NCCN4CCOCC4)c(=O)c3c2)cc1 | 25.9 µM [rising, single point] | –
COc1ccc(CC(=O)Nc2nc3ccc(F)cc3s2)cc1S(=O)(=O)N1CCOCC1 | 8.2 µM [falling, partial curve, poor fit] | –
COc1ccccc1-c1nnc(SCC(=O)Nc2ccccc2)o1 | 23.1 µM [falling, single point] | –
COC(=O)CN1C(=O)N/C(=C/c2ccc(OC)c(C)c2OC)C1=O | 0.562 µM [falling, full curve, poor fit] | –

2 entries from above, as tab-separated lines:
SMILES	AC50 [1]	AC50 [2]
COC(=O)c1ccccc1NC(=O)c1cnn2cccnc12	35.5 µM [falling, single point]	–
CC(=O)c1ccc(S(=O)(=O)N2CCc3ccccc3C2)cc1	10 µM [rising, partial curve, poor fit]	–

Following part.

SMILES | AC50 [1] | AC50 [2]
CC(=O)N(Cc1ccccc1)Cc1nc2sc(C)c(C)c2c(=O)[nH]1 | 0.251 µM [rising, full curve, poor fit] | –
COc1ccc(NC(=O)CO/N=C/C(=O)Nc2ccccc2C)c([N+](=O)[O-])c1 | 0.082 µM [rising, full curve, poor fit] | –
O=C1OC(=O)C2C1[C@@H]1CC[C@H]2O1 (stereo not given in full) | 14.1 µM [rising, partial curve, poor fit] | –
CC(C)(C)c1ccc(N=C2SCC(=O)N2Cc2cccs2)cc1 | 35.5 µM [rising, partial curve, poor fit] | –
NNC(=O)c1oc2ccccc2c1-n1cccc1 | 6.31 µM [rising, partial curve, poor fit] | 3.98 µM [falling, single point]
O=C1C=C(Nc2ccc(F)cc2)c2ccccc2C1=O | 4.11 µM [falling, single point] | –
CCCCNC(=O)c1ccccc1NC(=O)CCSc1ccccc1 | 18.4 µM [falling, partial curve, poor fit] | –
Cc1ccc(N2CCN(S(=O)(=O)c3ccc(F)c(C)c3)CC2)c(C)c1 | 32.6 µM [rising, single point] | –
CC(=O)Nc1ccc(NC(=O)COC(=O)[C@@H]2CCCN2C(=O)c2cccs2)cc1 | 20.6 µM [rising, single point] | –
Cc1cc(C)nc(SCc2ccc(C(=O)N/N=C/c3cccnc3)cc2)n1 | 4.47 µM [rising, full curve, poor fit] | 10 µM [falling, partial curve, poor fit]
CN(C)S(=O)(=O)c1ccc(C(=O)Nc2nnc(-c3ccco3)o2)cc1 | 5.62 µM [falling, single point] | –
CCc1cc(Cn2nc(C(=O)O)cc2-c2ccccc2)on1 | 0.58 µM [rising, full curve] | –
COc1cc(NC(=S)N2CCN(C(c3ccccc3)c3ccccc3)CC2)cc(OC)c1 | 18.4 µM [falling, single point] | –
COc1ccc(C)cc1N(C(=O)c1snc(C(N)=O)c1N)C(C(=O)NC1CCCC1)c1ccc(F)cc1 (stereo not given) | 8.91 µM [falling, partial curve, poor fit] | –
O=C(c1cc(-c2ccco2)on1)N1CCCc2ccccc21 | 1.58 µM [rising, full curve] | –
O=c1cc(-c2ccccc2)nc2nc(-c3ccccc3)[nH]n12 | 0.92 µM [falling, full curve] | –
CN(C)C(=O)COC(=O)c1ccccc1Nc1ccc(SC(F)F)cc1 | 20.6 µM [falling, partial curve] | –
O=C(c1ccc2c(c1)OCO2)N1CCNc2ccccc2C1 | 1.46 µM [falling, partial curve] | –
CNC(=O)/C(C#N)=C/c1c(N(Cc2ccccc2)Cc2ccccc2)nc2c(C)cccn2c1=O | 2.59 µM [falling, partial curve, poor fit] | –
COc1cc(/C=N/NC(=O)CCn2c3ccccc3c3ccccc32)cc(OC)c1OC | 0.366 µM [rising, full curve, poor fit] | –
COc1ccc(N2C(=O)[C@@H]3[C@H](C2=O)[C@H]2C=CC=NN2[C@@H]3C(=O)Nc2ccc(Cl)cc2)cc1 | 12.6 µM [falling, partial curve, poor fit] | –
